Laboratory results published in patent US11298422B2, “Treating tumors with TTFields and an aurora kinase inhibitor” (Novocure Limited, priority 2018, dated 2022).
At least one structure is not confirmed: it was looked up by name or label, or the drawing left a doubt.

Columns and labels:
[1] = tested on: primary glioblastoma cell line HT12347; assay: Normalized cell count, primary glioblastoma cells; type: cell-based; settings: as compared to each treatment alone, Mann-Whitney-U-test, p<0.001
Method: In addition to U87-MG cells, primary tumor-cell lines were established from glioblastoma tissue taken intraoperatively. TTFields (1.6 V/cm RMS, 200 kHz) were applied for 72 hours using the InovitroTM system. AZD1152 was added to the media in concentrations of up to 100 nmol/l. Cell counts, cell cycle and clonogenic potential were determined at the end of treatment. Primary tumor-cell-lines were analyzed. In addition, MLN8237, an Aurora A kinase inhibitor, was tested in concentrations up to 50 nmol/l for the treatment of U87-MG and primary tumor-cell lines to further establish Aurora kinase inhibition as a target for combination therapy with TTFields. […] FIGS. 5A and 5B show the normalized cell counts after treatment with TTFields and AZD1152, alone and in combination, on U87-MG (FIG. 5A) and primary glioblastoma cell line HT12347 (FIG. 5B) at the indicated AZD1152 concentration and […] frequency. The exemplary box plots show the normalized cell count after treatment with AZD1152 alone, TTFields alone, and combination of AZD1152 and TTFields. “***” marks significant differences where p<0.001. […] FIGS. 8A-8B show the normalized cell counts after treatment with TTFields and MLN8237, alone and in combination, on U87-MG (FIG. 8A) and primary glioblastoma cell line HT12347 (FIG. 8B). […]

[2] = tested on: U87-MG; assay: Flow cytometry analysis of DNA contents (ploidy), U87-MG; type: cell-based, human; settings: following treatment with TTFields and AZD1152
Method: (§1) For cell cycle analysis, cells were removed with Trypsin immediately after 72 h treatment, washed twice with ice-cold PBS with 1% FBS and fixed with 70% ice-cold ethanol for 30 min. After fixation, cells were washed twice with ice-cold PBS with 1% FBS, pelleted and incubated in PBS containing 10 μg/ml RNase and 7.5 μg/ml7-AAD (Sigma-Aldrich) at 37° C. for 30 min. Cell cycle distribution was then quantified using the EC800 flow cytometer (Sony Biotechnology, Japan).
(§2) FIGS. 3A-D and 4A-E show U87-MG and U87-MG^shp53 FACS analysis of DNA contents following treatment with TTFields and AZD1152. More specifically, FIGS. 3A-D depict increased polyploidy in U87-MG cells following the combined treatment of TTFields (200 kHz, 1.6 V/cm RMS) at various AZD1152 concentrations; and FIGS. 4A-E depict increased polyploidy in U87-MG^shp53 cells following the combined treatment of TTFields (200 kHz, 1.6 V/cm RMS) at various AZD1152 concentrations.
(§3) Tables 1 and 2 depict, for U87-MG and U87-MG^shp53 respectively, numeric data corresponding to FIGS. 3 and 4. The columns in tables 1 and 2 represent the DNA copy number (e.g., 2n is the normal number of chromosomes (23 pairs=46), 4n is twice the number of chromosomes, etc.).

[3] = tested on: U87-MG^shp53; assay: Microscopy of crystal violet stained cells, U87-MG^shp53; type: cell-based, human
[4] = tested on: U-251; assay: Overall effect based on the clonogenic assay, U-251; type: cell-based, human; settings: 2-way ANOVA, p<0.001 (FIG. 1E)
Method: (§4) The effects of the combined treatment of TTFields and the Aurora B kinase inhibitor AZD1152 was tested in 3 different glioma cell lines: U87-MG, U87-MG^shp53 and U-251. TTFields ([…], 200 kHz) were applied for 72 hours using the Inovitro system. AZD1152 was added to the media in concentrations of up to 100 nmol/L. Cell counts, cell cycle, and clonogenic potential were determined at the end of treatment. Formation of multinuclear cells was determined using microscopic images of cells stained with crystal violet.
(§5) The effects of the combined treatment of TTFields and AZD1152 was tested using the following human glioma cell lines: U87-MG (ATCC), U-251 (ECACC) and U87-mG^shp53 (provided by Dr. Achim Temme). All cells were grown in a humidified incubator supplied with 5% CO2. […]
(§6) TTFields (1.6 V/cm RMS, 200 kHz) were applied for 72 hours using the Inovitro system. At the end of treatment, inhibition of tumor cell growth was analyzed quantitatively based on cell count. […] After 2-3 weeks, cells were stained with crystal violet and the number of clones was quantified. Overall effect was calculated by multiplying the percentage of surviving cells at the end of treatment with the percentage of colonies formed vs. control.
The overall effect for U-251 cells was determined based on the clonogenic assay. […]

[5] = tested on: U-251; assay: Cell counting by flow cytometry, U-251; type: cell-based, human; settings: made them impossible to count using flow cytometry
[6] = tested on: U87-MG; assay: Microscopy of crystal violet stained cells, U87-MG; type: cell-based, human
[7] = tested on: U87-MG; assay: Overall effect (surviving cells x colonies formed vs. control), U87-MG; type: cell-based, human; settings: cytotoxic effect and clonogenic response (FIG. 1B)
Method: as §4, §5, §6

[8] = tested on: U87-MG^shp53; assay: Overall effect (surviving cells x colonies formed vs. control), U87-MG^shp53; type: cell-based, human; settings: U87-MG^shp53 (FIG. 1D)
Method: as §4, §5, §6

[9] = tested on: U87-MG^shp53; assay: Flow cytometry analysis of DNA contents (ploidy), U87-MG^shp53; type: cell-based, human; settings: U87-MG^shp53, following treatment with TTFields and AZD1152
Method: as §1, §2, §3

[10] = tested on: U87-MG^shp53; assay: Cytotoxicity assay (cell count at end of treatment), U87-MG^shp53; type: cell-based, human; settings: U87-MG^shp53 as compared to p53 WT counterpart strain
Method: as §4, §5, §6

[11] = tested on: U87-MG; assay: Cytotoxicity assay (cell count at end of treatment), U87-MG; type: cell-based, human; settings: at concentrations above 20 nM
Method: as §4, §5, §6

CCN(CCCOc1ccc2c(Nc3cc(CC(=O)Nc4cccc(F)c4)n[nH]3)ncnc2c1)CCOP(=O)(O)O [AZD1152, Barasertib]
number of cells after combined treatment of TTFields and AZD1152 [1]: significant reduction in the number of primary glioblastoma cells
number of polyploid cells (ploidy analysis) [2]: increase in the number of polyploid cells
multinuclear cells ([3]; U87-MG^shp53, TTFields + AZD1152 25 nM as compared to AZD1152 25 nM alone): High prevalence of multi nuclear cells
pyknosis ([3]; U87-MG^shp53, TTFields + AZD1152 50-100 nM): increased rates of pyknosis
number of colonies after combined treatment of TTFields and AZD1152 [4]: significant reduction in the number of U-251 colonies
cell volume following treatment with AZD1152 [5]: increased their volume dramatically
multinuclear cells ([6]; TTFields + AZD1152 25 nM as compared to AZD1152 25 nM alone): High prevalence of multi nuclear cells
pyknosis ([6]; TTFields + AZD1152 50-100 nM): increased rates of pyknosis
overall effect of combined treatment of TTFields and AZD1152 [7]: significant enhancement of the overall effect
overall effect of combined treatment of TTFields and AZD1152 [8]: significant enhancement
number of polyploid cells (ploidy analysis) [9]: increase in the number of polyploid cells
sensitivity to treatment with AZD1152 [10]: less sensitive
sensitivity to treatment with AZD1152 [11]: highly sensitive
